According to PubChem BioAssay AID330 (DTP/NCI, 2004):
The list is a part of this screen's results and no random one: it gathers tests that were run many times, whatever their T/C, doses with no T/C, and many T/C values between a quarter and a half above the control. Other doses and runs of a compound stand elsewhere. T/C gives the treated animals as a percentage of the vehicle group. Some entries give survivors of the animals treated and no T/C: the source holds a T/C of zero for them, seemingly a mark for toxic or unscored doses. Some doses without a T/C left all or most animals alive at the check, yet need not have been tolerated: the source hardly ever lists a survival T/C far under the control, and the zero likely stands for such cases as well. Counts of survivors are from the toxicity check (mostly the fifth day) where no day follows; animals may have died later. Schedule codes are those of the source, taken here to give the interval after Q, in days (D) or hours (H), and the number of doses after X. Some entries hold several experiments; the values are given in rising order. Additions like (4×) give the number of equal values in this list. Some structures stand for samples that the source files as different forms (salt, stereo form or complex); doses refer to the form tested. Where survival is the endpoint, the PubChem record calls one and a half times the control and up active, and a quarter to a half above the control has no call in these data; cut-offs in other NCI protocols can differ. Some T/C values carry the count of animals alive at the toxicity check (mostly the fifth day); without a count, all were alive then.

System: P388 leukemia ip, CD2F1 mice, survival T/C
Test: NCI In Vivo Anticancer Drug Screen. Data for tumor model P388 Leukemia (intraperitoneal) in CD2F1 (CDF1) mice
Conditions: T/C endpoint: median survival time, higher T/C = longer survival
[1] = dose: 100.0 mg/kg/injection, schedule: Q01DX009 (ip), vehicle: Klucel (hydroxypropylcellulose) (HPC)
[2] = dose: 25.0 mg/kg/injection, schedule: Q01DX009 (ip), vehicle: saline with Tween-80
[3] = dose: 37.5 mg/kg/injection, schedule: Q01DX009 (ip), vehicle: saline with Tween-80
[4] = dose: 50.0 mg/kg/injection, schedule: Q01DX005 (ip), vehicle: Klucel (hydroxypropylcellulose) (HPC)
[5] = dose: 100.0 mg/kg/injection, schedule: Q01DX005 (ip), vehicle: Klucel (hydroxypropylcellulose) (HPC)
[6] = dose: 200.0 mg/kg/injection, schedule: Q01DX005 (ip), vehicle: Klucel (hydroxypropylcellulose) (HPC)
[7] = dose: 240.0 mg/kg/injection, schedule: Q01DX005 (ip), vehicle: saline with Tween-80
[8] = dose: 3.12 mg/kg/injection, schedule: Q01DX005 (ip), vehicle: Klucel (hydroxypropylcellulose) (HPC)
[9] = dose: 400.0 mg/kg/injection, schedule: Q04DX002 (ip), vehicle: Klucel (hydroxypropylcellulose) (HPC)

## CC(=O)N1CCN(c2ccc(OCC3COC(Cn4ccnc4)(c4ccc(Cl)cc4Cl)O3)cc2)CC1 (stereo not given)
dose: 200.0 mg/kg/injection, schedule: Q01DX009 (ip), vehicle: saline with Tween-80
  survivor count: 6 of 6

## CN=NNc1ccc([N+](=O)[O-])cc1
dose: 12.5 mg/kg/injection, schedule: Q01DX009 (ip), vehicle: Klucel (hydroxypropylcellulose) (HPC)
  survivor count: 0 of 6
dose: 25.0 mg/kg/injection, schedule: Q01DX009 (ip), vehicle: Klucel (hydroxypropylcellulose) (HPC)
  survivor count: 0 of 6
dose: 50.0 mg/kg/injection, schedule: Q01DX009 (ip), vehicle: Klucel (hydroxypropylcellulose) (HPC)
  survivor count: 0 of 6
[1]
  T/C: 140 % of control
  survivor count: 0 of 6
dose: 200.0 mg/kg/injection, schedule: Q01DX009 (ip), vehicle: Klucel (hydroxypropylcellulose) (HPC)
  survivor count: 0 of 6 and 3 of 6

## NC(=O)c1nn(C2OC(CO)C(O)C2O)c2ncnc(N)c12 (stereo not given)
dose: 1.5 mg/kg/injection, schedule: Q01DX009 (ip), vehicle: Klucel (hydroxypropylcellulose) (HPC)
  T/C: 140 % of control

## O=C(CCCCCCCCc1ccc(O)c(O)c1)c1c(O)cccc1O
dose: 6.0 mg/kg/injection, schedule: Q01DX009 (ip), vehicle: Klucel (hydroxypropylcellulose) (HPC)
  survivor count: 6 of 6

## Cc1cc(NCCCCCCCCNc2cc(C)nc3cc(N)ccc23)c2ccc(N)cc2n1
dose: 3.13 mg/kg/injection, schedule: Q01DX009 (ip), vehicle: other
  T/C: 133 % of control
dose: 3.13 mg/kg/injection, schedule: Q01DX009 (ip), vehicle: water
  T/C: 129 % of control
dose: 6.25 mg/kg/injection, schedule: Q01DX009 (ip), vehicle: other
  T/C: 134 % of control
dose: 6.25 mg/kg/injection, schedule: Q01DX009 (ip), vehicle: water
  T/C: 132 % of control
dose: 12.5 mg/kg/injection, schedule: Q01DX009 (ip), vehicle: other
  T/C: 133 % of control [5 of 6 alive]
dose: 12.5 mg/kg/injection, schedule: Q01DX009 (ip), vehicle: water
  T/C: 136 % of control
dose: 25.0 mg/kg/injection, schedule: Q01DX009 (ip), vehicle: other
  survivor count: 2 of 6
dose: 25.0 mg/kg/injection, schedule: Q01DX009 (ip), vehicle: water
  survivor count: 3 of 6
dose: 50.0 mg/kg/injection, schedule: Q01DX009 (ip), vehicle: other
  survivor count: 0 of 6
dose: 100.0 mg/kg/injection, schedule: Q01DX009 (ip), vehicle: other
  survivor count: 0 of 6
dose: 200.0 mg/kg/injection, schedule: Q01DX009 (ip), vehicle: other
  survivor count: 0 of 6
dose: 400.0 mg/kg/injection, schedule: Q01DX009 (ip), vehicle: other
  survivor count: 0 of 6

## COc1cccc2c1C(=O)c1c(O)c3c(c(O)c1C2=O)C[C@@](O)(C(C)=O)C[C@@H]3OC1CC(N)C(OC2CC(O)C(O)C(C)O2)C(C)O1 (stereo not given in full)
dose: 18.0 mg/kg/injection, schedule: Q04DX003 (ip), vehicle: distilled water + Tween-80
  T/C: 126 % of control
dose: 50.0 mg/kg/injection, schedule: Q04DX003 (ip), vehicle: distilled water + Tween-80
  T/C: 128 % of control

## CC(=NC(C)C)Nc1ccc(Cl)cc1C
dose: 200.0 mg/kg/injection, schedule: Q01DX009 (ip), vehicle: saline + Tween-80 + alcohol
  survivor count: 3 of 6

## CC1(C)C(=O)N(Cl)C(=O)N1Cl
dose: 25.0 mg/kg/injection, schedule: Q01DX005 (ip), vehicle: Klucel (hydroxypropylcellulose) (HPC)
  survivor count: 4 of 5
[2]
  survivor count: 2 of 6
[3]
  survivor count: 3 of 6
[4]
  survivor count: 0 of 5 and 1 of 5
dose: 50.0 mg/kg/injection, schedule: Q01DX005 (ip), vehicle: saline with Tween-80
  survivor count: 0 of 6
[5]
  survivor count: 0 of 5 and 1 of 5
[6]
  survivor count: 0 of 5 (2×)

## FC(F)(F)C1(C(F)(F)F)O[Si]2(OC(C(F)(F)F)(C(F)(F)F)c3ccccc32)c2ccccc21
dose: 100.0 mg/kg/injection, schedule: Q01DX005 (ip), vehicle: distilled water + Tween-80 + alcohol
  survivor count: 0 of 6
dose: 200.0 mg/kg/injection, schedule: Q01DX005 (ip), vehicle: distilled water + Tween-80 + alcohol
  survivor count: 0 of 6
dose: 200.0 mg/kg/injection, schedule: Q01DX005 (ip), vehicle: saline with Tween-80
  survivor count: 0 of 6

## Cc1ccc(S(=O)(=O)c2cc3ccccc3oc2=O)cc1
[7]
  survivor count: 6 of 6

## O=[N+]([O-])c1ccc([Se]CCBr)c([N+](=O)[O-])c1
dose: 400.0 mg/kg/injection, schedule: Q04DX003 (ip), vehicle: Klucel (hydroxypropylcellulose) (HPC)
  survivor count: 0 of 6

## COC(=O)[CH2][Sn]([CH2]C(=O)OC)([c]1ccccc1)[c]1ccccc1
dose: 1.56 mg/kg/injection, schedule: Q01DX005 (ip), vehicle: Klucel (hydroxypropylcellulose) (HPC)
  survivor count: 1 of 6
[8]
  T/C: 131 % of control [5 of 6 alive]
  survivor count: 0 of 6
dose: 6.25 mg/kg/injection, schedule: Q01DX005 (ip), vehicle: Klucel (hydroxypropylcellulose) (HPC)
  survivor count: 0 of 6
dose: 12.5 mg/kg/injection, schedule: Q01DX005 (ip), vehicle: Klucel (hydroxypropylcellulose) (HPC)
  survivor count: 0 of 6
[4]
  survivor count: 0 of 6
[5]
  survivor count: 0 of 6
[6]
  survivor count: 0 of 6

## O=C(Nc1cc(-c2ccccc2)nn1-c1ccccc1)c1ccc(Cl)cc1
dose: 120.0 mg/kg/injection, schedule: Q01DX005 (ip), vehicle: saline with Tween-80
  survivor count: 6 of 6

## Oc1ccc(CCNCc2ccc3c(c2)OCO3)cc1O
[9]
  survivor count: 3 of 6

## Nc1ccccc1SC(C[N+](=O)[O-])c1ccc2c(c1)OCO2 (stereo not given)
[7]
  survivor count: 4 of 6

## CC12CCC3C(CCC4CC(OC(=O)Cc5ccc(N(CCCl)CCCl)cc5)CCC43C)C1CCC(=O)N2 (stereo not given)
dose: 3.0 mg/kg/injection, schedule: Q01DX009 (ip), vehicle: saline with Tween-80
  T/C: 130 and 134 % of control

## COc1cc(N=Nc2ccc(N=Nc3ccc4cc(S(=O)(=O)O)cc(S(=O)(=O)O)c4c3)c(C)c2)c(C)cc1NC(=O)c1ccc(NC(=O)c2ccc(N)cc2)cc1
[5]
  T/C: 126 % of control

## Cc1cccc(/C=N/Nc2ccc3ccccc3n2)n1
[4]
  survivor count: 6 of 6
[5]
  survivor count: 1 of 6
[6]
  survivor count: 0 of 6

## C=C1CC2C3CCC=C3C(c3ccc(OC)cc3)C2C1=O (stereo not given)
dose: 400.0 mg/kg/injection, schedule: Q01DX001 (ip), vehicle: Klucel (hydroxypropylcellulose) (HPC)
  survivor count: 0 of 6

## O=C(O)c1cc(CCCC(=O)c2cc(C(=O)O)c(O)c3ccccc23)c2ccccc2c1O
dose: 200.0 mg/kg/injection, schedule: Q04DX002 (ip), vehicle: Klucel (hydroxypropylcellulose) (HPC)
  survivor count: 0 of 6
[9]
  survivor count: 0 of 6

## O=C1N(Br)C(=O)C(c2ccc(Cl)cc2)(c2ccc(Cl)cc2)N1Br
dose: 16.5 mg/kg/injection, schedule: Q01DX009 (ip), vehicle: saline with Tween-80
  T/C: 136 % of control
[2]
  T/C: 136 % of control
[3]
  T/C: 145 % of control
dose: 44.0 mg/kg/injection, schedule: Q01DX009 (ip), vehicle: saline with Tween-80
  T/C: 131 % of control
dose: 66.0 mg/kg/injection, schedule: Q01DX009 (ip), vehicle: saline with Tween-80
  T/C: 145 % of control
dose: 100.0 mg/kg/injection, schedule: Q01DX009 (ip), vehicle: saline with Tween-80
  T/C: 136 % of control

## COc1ccc(CCN)c(OC)c1OC
dose: 200.0 mg/kg/injection, schedule: Q01DX009 (ip), vehicle: saline
  survivor count: 0 of 6 and 1 of 6

## CCC1(O)CC2CN(CCc3c([nH]c4ccccc34)C(C(=O)OC)(c3cc4c(cc3OC)N(C)C3C(O)(C(=O)NCCSSCCNC(=O)C5(O)C(O)C6(CC)C=CCN7CCC8(c9cc(C%10(C(=O)OC)CC%11CN(CCc%12c%10[nH]c%10ccccc%12%10)CC(O)(CC)C%11)c(OC)cc9N(C)C58)C76)C(O)C5(CC)C=CCN6CCC43C65)C2)C1 (stereo not given)
dose: 0.09 mg/kg/injection, schedule: Q04DX003 (ip), vehicle: saline
  T/C: 136 % of control
dose: 0.8 mg/kg/injection, schedule: Q01DX009 (ip), vehicle: saline
  survivor count: 8 of 8
dose: 3.0 mg/kg/injection, schedule: Q04DX003 (ip), vehicle: saline
  survivor count: 6 of 8 and 5 of 6
